Test results: patent US20200222474A1, “COMPOSITIONS AND METHODS FOR INCREASING PHYTOCHEMICAL BIOAVAILABLITY AND BIOACTIVITY” (North Carolina State University, priority 2017, published 2020)
The source gives many values for each of these; only a part stands here.

System: L. acidophilus NCFM
Assay: RNA-seq transcriptional analysis of L. acidophilus NCFM growing on plant glycosides
Assay type: cell-based, Lactobacillus acidophilus
[1] = LBA1974 Pyruvate oxidase, COG EH
[2] = gene LBA0802 (Hypothetical protein)
[3] = gene LBA0863 (Hypothetical protein)
[4] = gene LBA0878 (Hypothetical protein)
[5] = gene LBA0888 (Hypothetical protein)
[6] = gene LBA0987 (Hypothetical protein)
[7] = gene LBA1019 (Mucus binding protein)
[8] = gene LBA1020 (Mucus binding protein)
[9] = gene LBA1227 (Hypothetical protein)
[10] = gene LBA1370 (Putative bacteriophage-related protein)
[11] = gene LBA1409 (Hypothetical protein LBA1409)
[12] = gene LBA1460 (Mucus binding protein precursor)
[13] = gene LBA1461 (Putative regulator)
[14] = gene LBA1539 (Hypothetical protein)
[15] = gene LBA1608 (Hypothetical protein)
[16] = gene LBA1612 (Fibrinogen-binding protein)
[17] = gene LBA1652 (Mucus binding protein precursor Mub)
[18] = gene LBA1655 (Hypothetical protein)
[19] = gene LBA1686 (Hypothetical protein)
[20] = gene LBA1693 (Hypothetical protein)
[21] = gene LBA1694 (Hypothetical protein)
[22] = gene LBA1709 (Mucus binding protein precursor Mub)
[23] = gene LBA1784 (Hypothetical protein)
[24] = gene LBA1786 (Hypothetical protein)
[25] = gene LBA1791 (Hypothetical protein)
[26] = gene LBA1792 (Hypothetical protein)
[27] = gene LBA1794 (Gassericin K7 B accessory protein)
[28] = gene LBA1797 (Hypothetical protein)
[29] = gene LBA1801 (Hypothetical protein)
[30] = gene LBA1802 (Hypothetical protein)
[31] = gene LBA1803 (Hypothetical protein.)
[32] = gene LBA1804 (Hypothetical protein)
[33] = gene LBA1805 (Hypothetical protein)
[34] = gene without printed locus tag, last line of Table 5 (Hypothetical protein)

**Q.** With `OCc1ccccc1O[C@@H]1O[C@H](CO)[C@@H](O)[C@H](O)[C@H]1O` [Salicin] as the compound, how does the “Log2 differential normalized TPM ratio compared to glucose” value [1] read?
**A.** 1.8

**Q.** What about the “Log2 differential normalized TPM ratio compared to lactose” value [1] of the same compound?
**A.** −0.6

**Q.** And the “Transcripts per million (rpm)” value [1]?
**A.** 306.8 rpm

**Q.** What about the “Log2 differential normalized TPM ratio compared to glucose” value [2] of the same compound?
**A.** 0

**Q.** And the “Transcripts per million (rpm)” value [2]?
**A.** 35.1 rpm

**Q.** And the “Log2 differential normalized TPM ratio compared to glucose” value [3]?
**A.** 0.2

**Q.** What about the “Log2 differential normalized TPM ratio compared to lactose” value [3] of the same compound?
**A.** −0.6

**Q.** What about the “Transcripts per million (rpm)” value [3] of the same compound?
**A.** 58.6 rpm

**Q.** And the “Log2 differential normalized TPM ratio compared to glucose” value [4]?
**A.** 1.5

**Q.** And the “Log2 differential normalized TPM ratio compared to lactose” value [4]?
**A.** 0.3

**Q.** And the “Transcripts per million (rpm)” value [4]?
**A.** 10.9 rpm

**Q.** And the “Log2 differential normalized TPM ratio compared to glucose” value [5]?
**A.** 1.3

**Q.** What about the “Log2 differential normalized TPM ratio compared to lactose” value [5] of the same compound?
**A.** 0.2

**Q.** What about the “Transcripts per million (rpm)” value [5] of the same compound?
**A.** 76.2 rpm

**Q.** What about the “Log2 differential normalized TPM ratio compared to glucose” value [6] of the same compound?
**A.** 2.7

**Q.** What about the “Log2 differential normalized TPM ratio compared to lactose” value [6] of the same compound?
**A.** −0.3

**Q.** What about the “Transcripts per million (rpm)” value [6] of the same compound?
**A.** 294.5 rpm

**Q.** What about the “Log2 differential normalized TPM ratio compared to glucose” value [7] of the same compound?
**A.** 1

**Q.** And the “Log2 differential normalized TPM ratio compared to lactose” value [7]?
**A.** 0

**Q.** What about the “Transcripts per million (rpm)” value [7] of the same compound?
**A.** 26.5 rpm

**Q.** What about the “Log2 differential normalized TPM ratio compared to glucose” value [8] of the same compound?
**A.** −0.5

**Q.** What about the “Log2 differential normalized TPM ratio compared to lactose” value [8] of the same compound?
**A.** −0.6

**Q.** And the “Transcripts per million (rpm)” value [8]?
**A.** 106.2 rpm

**Q.** And the “Log2 differential normalized TPM ratio compared to glucose” value [9]?
**A.** 0.7

**Q.** And the “Log2 differential normalized TPM ratio compared to lactose” value [9]?
**A.** 0.2

**Q.** And the “Transcripts per million (rpm)” value [9]?
**A.** 117.3 rpm

**Q.** What about the “Log2 differential normalized TPM ratio compared to glucose” value [10] of the same compound?
**A.** 0.9

**Q.** What about the “Log2 differential normalized TPM ratio compared to lactose” value [10] of the same compound?
**A.** 0.4

**Q.** And the “Transcripts per million (rpm)” value [10]?
**A.** 73.1 rpm

**Q.** What about the “Log2 differential normalized TPM ratio compared to glucose” value [11] of the same compound?
**A.** 0.7

**Q.** And the “Log2 differential normalized TPM ratio compared to lactose” value [11]?
**A.** 0

**Q.** What about the “Transcripts per million (rpm)” value [11] of the same compound?
**A.** 7.3 rpm

**Q.** What about the “Log2 differential normalized TPM ratio compared to glucose” value [12] of the same compound?
**A.** −0.4

**Q.** And the “Log2 differential normalized TPM ratio compared to lactose” value [12]?
**A.** −4.6

**Q.** And the “Transcripts per million (rpm)” value [12]?
**A.** 7.9 rpm

**Q.** What about the “Log2 differential normalized TPM ratio compared to glucose” value [13] of the same compound?
**A.** 0.3

**Q.** And the “Log2 differential normalized TPM ratio compared to lactose” value [13]?
**A.** −4.6

**Q.** What about the “Transcripts per million (rpm)” value [13] of the same compound?
**A.** 7.3 rpm

**Q.** What about the “Log2 differential normalized TPM ratio compared to glucose” value [14] of the same compound?
**A.** 1.8

**Q.** What about the “Log2 differential normalized TPM ratio compared to lactose” value [14] of the same compound?
**A.** −0.9

**Q.** What about the “Transcripts per million (rpm)” value [14] of the same compound?
**A.** 86.5 rpm

**Q.** What about the “Log2 differential normalized TPM ratio compared to glucose” value [15] of the same compound?
**A.** 1.1

**Q.** And the “Log2 differential normalized TPM ratio compared to lactose” value [15]?
**A.** 0.4

**Q.** What about the “Transcripts per million (rpm)” value [15] of the same compound?
**A.** 46.3 rpm

**Q.** What about the “Log2 differential normalized TPM ratio compared to glucose” value (gene LBA1611 (Surface protein)) of the same compound?
**A.** 0.8

**Q.** And the “Log2 differential normalized TPM ratio compared to lactose” value (gene LBA1611 (Surface protein))?
**A.** 1.3

**Q.** And the “Transcripts per million (rpm)” value (gene LBA1611 (Surface protein))?
**A.** 294.6 rpm

**Q.** What about the “Log2 differential normalized TPM ratio compared to glucose” value [16] of the same compound?
**A.** 0.8

**Q.** And the “Log2 differential normalized TPM ratio compared to lactose” value [16]?
**A.** 0.7

**Q.** And the “Transcripts per million (rpm)” value [16]?
**A.** 238.7 rpm

**Q.** What about the “Log2 differential normalized TPM ratio compared to glucose” value (gene LBA1633 (Surface protein)) of the same compound?
**A.** 0.9

**Q.** What about the “Log2 differential normalized TPM ratio compared to lactose” value (gene LBA1633 (Surface protein)) of the same compound?
**A.** −0.3

**Q.** And the “Transcripts per million (rpm)” value (gene LBA1633 (Surface protein))?
**A.** 14.1 rpm

**Q.** And the “Log2 differential normalized TPM ratio compared to glucose” value [17]?
**A.** 1

**Q.** What about the “Log2 differential normalized TPM ratio compared to lactose” value [17] of the same compound?
**A.** 0.4

**Q.** And the “Transcripts per million (rpm)” value [17]?
**A.** 23.6 rpm

**Q.** And the “Log2 differential normalized TPM ratio compared to glucose” value [18]?
**A.** 0.5

**Q.** And the “Log2 differential normalized TPM ratio compared to lactose” value [18]?
**A.** 0.2

**Q.** And the “Transcripts per million (rpm)” value [18]?
**A.** 6.1 rpm

**Q.** And the “Log2 differential normalized TPM ratio compared to glucose” value [19]?
**A.** −0.9

**Q.** And the “Log2 differential normalized TPM ratio compared to lactose” value [19]?
**A.** −0.6

**Q.** And the “Transcripts per million (rpm)” value [19]?
**A.** 100.9 rpm

**Q.** What about the “Log2 differential normalized TPM ratio compared to glucose” value [20] of the same compound?
**A.** 0.1

**Q.** What about the “Log2 differential normalized TPM ratio compared to lactose” value [20] of the same compound?
**A.** −0.9

**Q.** And the “Transcripts per million (rpm)” value [20]?
**A.** 120.8 rpm

**Q.** And the “Log2 differential normalized TPM ratio compared to glucose” value [21]?
**A.** −0.2

**Q.** And the “Log2 differential normalized TPM ratio compared to lactose” value [21]?
**A.** −1.2

**Q.** And the “Transcripts per million (rpm)” value [21]?
**A.** 74.1 rpm

**Q.** What about the “Log2 differential normalized TPM ratio compared to glucose” value [22] of the same compound?
**A.** 0.5

**Q.** What about the “Log2 differential normalized TPM ratio compared to lactose” value [22] of the same compound?
**A.** 0.1

**Q.** What about the “Transcripts per million (rpm)” value [22] of the same compound?
**A.** 3.9 rpm

**Q.** What about the “Log2 differential normalized TPM ratio compared to glucose” value [23] of the same compound?
**A.** 0.4

**Q.** And the “Log2 differential normalized TPM ratio compared to lactose” value [23]?
**A.** −1.6

**Q.** And the “Transcripts per million (rpm)” value [23]?
**A.** 58.6 rpm

**Q.** And the “Log2 differential normalized TPM ratio compared to glucose” value [24]?
**A.** 0.6

**Q.** What about the “Log2 differential normalized TPM ratio compared to lactose” value [24] of the same compound?
**A.** −1.6

**Q.** What about the “Transcripts per million (rpm)” value [24] of the same compound?
**A.** 38.1 rpm

**Q.** What about the “Log2 differential normalized TPM ratio compared to glucose” value [25] of the same compound?
**A.** 0.1

**Q.** And the “Log2 differential normalized TPM ratio compared to lactose” value [25]?
**A.** −2.1

**Q.** And the “Transcripts per million (rpm)” value [25]?
**A.** 20.1 rpm

**Q.** What about the “Log2 differential normalized TPM ratio compared to glucose” value [26] of the same compound?
**A.** 0.6

**Q.** And the “Log2 differential normalized TPM ratio compared to lactose” value [26]?
**A.** −1.8

**Q.** And the “Transcripts per million (rpm)” value [26]?
**A.** 21.9 rpm

**Q.** What about the “Log2 differential normalized TPM ratio compared to glucose” value [27] of the same compound?
**A.** 0.5

**Q.** What about the “Log2 differential normalized TPM ratio compared to lactose” value [27] of the same compound?
**A.** −1.8

**Q.** What about the “Transcripts per million (rpm)” value [27] of the same compound?
**A.** 20.8 rpm

**Q.** And the “Log2 differential normalized TPM ratio compared to glucose” value [28]?
**A.** 1.3

**Q.** And the “Log2 differential normalized TPM ratio compared to lactose” value [28]?
**A.** −3.6

**Q.** And the “Transcripts per million (rpm)” value [28]?
**A.** 326.4 rpm

**Q.** And the “Log2 differential normalized TPM ratio compared to glucose” value [29]?
**A.** 0.8

**Q.** What about the “Log2 differential normalized TPM ratio compared to lactose” value [29] of the same compound?
**A.** −1.7

**Q.** And the “Transcripts per million (rpm)” value [29]?
**A.** 7.6 rpm

**Q.** What about the “Log2 differential normalized TPM ratio compared to glucose” value [30] of the same compound?
**A.** 0.7

**Q.** What about the “Log2 differential normalized TPM ratio compared to lactose” value [30] of the same compound?
**A.** −1.9

**Q.** And the “Transcripts per million (rpm)” value [30]?
**A.** 12.4 rpm

**Q.** What about the “Log2 differential normalized TPM ratio compared to glucose” value [31] of the same compound?
**A.** 0.7

**Q.** What about the “Log2 differential normalized TPM ratio compared to lactose” value [31] of the same compound?
**A.** −2.4

**Q.** And the “Transcripts per million (rpm)” value [31]?
**A.** 21.6 rpm

**Q.** What about the “Log2 differential normalized TPM ratio compared to glucose” value [32] of the same compound?
**A.** 0.7

**Q.** And the “Log2 differential normalized TPM ratio compared to lactose” value [32]?
**A.** −3

**Q.** What about the “Transcripts per million (rpm)” value [32] of the same compound?
**A.** 30.7 rpm

**Q.** What about the “Log2 differential normalized TPM ratio compared to glucose” value [33] of the same compound?
**A.** 1

**Q.** What about the “Log2 differential normalized TPM ratio compared to lactose” value [33] of the same compound?
**A.** −2.9

**Q.** And the “Transcripts per million (rpm)” value [33]?
**A.** 61.1 rpm

**Q.** And the “Log2 differential normalized TPM ratio compared to glucose” value [34]?
**A.** 0.4

**Q.** And the “Log2 differential normalized TPM ratio compared to lactose” value [34]?
**A.** 0.2

**Q.** What about the “Transcripts per million (rpm)” value [34] of the same compound?
**A.** 25.3 rpm
